PubChem BioAssay AID1259254 | NCATS, 2017
The deposit covers about 59,000 reagents; this is a random part of them. Over the whole deposit, about 1,550 (2.6%) were called active. 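G2 share is only a proxy for re-replication; each gene was hit by three separate siRNAs, and active genes were retested.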 Reagents against one gene are numbered here. Further read-outs or replicates are left out here. Not stated in the record: the amount of reagent.

Purpose: 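Genome-wide screen for genes that prevent DNA re-replication in cancer cells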 (primary screen)
Cells: human HCT116 colorectal cancer cells
Reagent: single siRNA against human genes
Timing: 3 days
Measured: 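Imaged Hoechst DNA stain sorts each cell into a cycle phase by DNA amount; per plate, G2 fraction set to 0% for non-targeting and 100% for GMNN siRNA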
Scale: G2 robust z-score: higher = more G2 cells, more excess DNA replication
Hit rule: 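An siRNA counts as active if its G2 robust z-score lies at least 5 MADs above the screen median; here such calls match roughly 38% of GMNN control or more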

target | reagent | G2 robust z-score | outcome
KIAA1143 | 1 | -0.343 | inactive
KIAA1143 | 2 | -0.202 | inactive
KIAA1143 | 3 | -0.238 | inactive
CCDC102A (coiled-coil domain containing 102A) | 1 | -1.23 | inactive
CCDC102A (coiled-coil domain containing 102A) | 2 | 1.98 | inactive
CCDC102A (coiled-coil domain containing 102A) | 3 | 0.142 | inactive
CSTF3-DT (CSTF3 divergent transcript) | 1 | 4.43 | inactive
CSTF3-DT (CSTF3 divergent transcript) | 2 | 1.51 | inactive
CSTF3-DT (CSTF3 divergent transcript) | 3 | -1.12 | inactive
LIPM (lipase family member M) | 1 | 0.288 | inactive
LIPM (lipase family member M) | 2 | -1.04 | inactive
LIPM (lipase family member M) | 3 | 1.04 | inactive
RBMX2 (RNA binding motif protein X-linked 2) | 1 | 0.233 | inactive
RBMX2 (RNA binding motif protein X-linked 2) | 2 | -0.764 | inactive
RBMX2 (RNA binding motif protein X-linked 2) | 3 | -1.35 | inactive
CEP20 (centrosomal protein 20) | 1 | -0.193 | inactive
CEP20 (centrosomal protein 20) | 2 | 1.32 | inactive
CEP20 (centrosomal protein 20) | 3 | -0.286 | inactive
ADGRA3 (adhesion G protein-coupled receptor A3) | 1 | -1.37 | inactive
ADGRA3 (adhesion G protein-coupled receptor A3) | 2 | -1.24 | inactive
ADGRA3 (adhesion G protein-coupled receptor A3) | 3 | -0.0115 | inactive
DHRS7C (dehydrogenase/reductase 7C) | 1 | 0.00354 | inactive
DHRS7C (dehydrogenase/reductase 7C) | 2 | -0.446 | inactive
DHRS7C (dehydrogenase/reductase 7C) | 3 | -1.11 | inactive
DMWD (DM1 locus, WD repeat containing) | 1 | 0.942 | inactive
DMWD (DM1 locus, WD repeat containing) | 2 | -0.0527 | inactive
DMWD (DM1 locus, WD repeat containing) | 3 | 4.48 | inactive
MIMS1 (mitochondrial inner membrane structural 1) | 1 | -0.438 | inactive
MIMS1 (mitochondrial inner membrane structural 1) | 2 | 4.95 | inactive
MIMS1 (mitochondrial inner membrane structural 1) | 3 | -0.303 | inactive
LPXN (leupaxin) | 1 | 3.47 | inactive
LPXN (leupaxin) | 2 | -0.336 | inactive
LPXN (leupaxin) | 3 | 1.66 | inactive
NKG7 (natural killer cell granule protein 7) | 1 | -0.167 | inactive
NKG7 (natural killer cell granule protein 7) | 2 | 0.117 | inactive
NKG7 (natural killer cell granule protein 7) | 3 | 0.34 | inactive
GARIN5A (golgi associated RAB2 interactor 5A) | 1 | 1.48 | inactive
GARIN5A (golgi associated RAB2 interactor 5A) | 2 | -0.156 | inactive
GARIN5A (golgi associated RAB2 interactor 5A) | 3 | -0.381 | inactive
ALOX5AP (arachidonate 5-lipoxygenase activating protein) | 1 | -0.67 | inactive
ALOX5AP (arachidonate 5-lipoxygenase activating protein) | 2 | 0.0151 | inactive
ALOX5AP (arachidonate 5-lipoxygenase activating protein) | 3 | 1.28 | inactive
H1-0 (H1.0 linker histone) | 1 | 3.84 | inactive
H1-0 (H1.0 linker histone) | 2 | 0.16 | inactive
H1-0 (H1.0 linker histone) | 3 | 0.427 | inactive
IL16 (interleukin 16) | 1 | -0.0869 | inactive
IL16 (interleukin 16) | 2 | -0.944 | inactive
IL16 (interleukin 16) | 3 | 1.03 | inactive
TMEM167A (transmembrane protein 167A) | 1 | -0.297 | inactive
TMEM167A (transmembrane protein 167A) | 2 | 6.01 | active
TMEM167A (transmembrane protein 167A) | 3 | -0.456 | inactive
EFNA4 (ephrin A4) | 1 | -0.201 | inactive
EFNA4 (ephrin A4) | 2 | 0.667 | inactive
EFNA4 (ephrin A4) | 3 | 1.82 | inactive
RORA (RAR related orphan receptor A) | 1 | -0.795 | inactive
RORA (RAR related orphan receptor A) | 2 | 1.86 | inactive
RORA (RAR related orphan receptor A) | 3 | 0.888 | inactive
HMGB3P24 (high mobility group box 3 pseudogene 24) | 1 | -0.806 | inactive
HMGB3P24 (high mobility group box 3 pseudogene 24) | 2 | -0.889 | inactive
HMGB3P24 (high mobility group box 3 pseudogene 24) | 3 | -0.839 | inactive
SPRY1 (sprouty RTK signaling antagonist 1) | 1 | -0.382 | inactive
SPRY1 (sprouty RTK signaling antagonist 1) | 2 | -1.22 | inactive
SPRY1 (sprouty RTK signaling antagonist 1) | 3 | 1.35 | inactive
NKAIN1 (sodium/potassium transporting ATPase interacting 1) | 1 | -0.301 | inactive
NKAIN1 (sodium/potassium transporting ATPase interacting 1) | 2 | -0.711 | inactive
NKAIN1 (sodium/potassium transporting ATPase interacting 1) | 3 | 0.189 | inactive
ZSCAN10 (zinc finger and SCAN domain containing 10) | 1 | 2.9 | inactive
ZSCAN10 (zinc finger and SCAN domain containing 10) | 2 | -1.4 | inactive
ZSCAN10 (zinc finger and SCAN domain containing 10) | 3 | -0.192 | inactive

A portion of the results above, for reference:
target | reagent | G2 robust z-score | outcome
HMGB3P24 (high mobility group box 3 pseudogene 24) | 2 | -0.889 | inactive
HMGB3P24 (high mobility group box 3 pseudogene 24) | 3 | -0.839 | inactive
SPRY1 (sprouty RTK signaling antagonist 1) | 1 | -0.382 | inactive
SPRY1 (sprouty RTK signaling antagonist 1) | 2 | -1.22 | inactive
SPRY1 (sprouty RTK signaling antagonist 1) | 3 | 1.35 | inactive
NKAIN1 (sodium/potassium transporting ATPase interacting 1) | 1 | -0.301 | inactive
NKAIN1 (sodium/potassium transporting ATPase interacting 1) | 2 | -0.711 | inactive
NKAIN1 (sodium/potassium transporting ATPase interacting 1) | 3 | 0.189 | inactive
ZSCAN10 (zinc finger and SCAN domain containing 10) | 1 | 2.9 | inactive
ZSCAN10 (zinc finger and SCAN domain containing 10) | 2 | -1.4 | inactive
